Patent US12091402B2 (Avilar Therapeutics, Inc., priority 2021, dated 2024)

test: general procedure: Fmoc solid-phase peptide synthesis; AM Resin (0.30 mmol/g); CTC Resin; HBTU/DIEA; settings: whole synthesis

Row | Substance | final purity (method not given) [% purity] | isolated yield [% yield]
1 | 2-((2S,5aR,11S,14R,17S,20S,23S,26S,32S,35S,38S,41S,44R,47S,49aS)-35-((1H-imidazol-5-yl)methyl)-17,38-bis((1H-indol-3-yl)methyl)-2-amino-11-((R)-1-hydroxyethyl)-23,32-diisobutyl-20-isopropyl-26,41-dimethyl-5,10,13,16,19,22,25,28,31,34,37,40,43,46,49-pentadecaoxooctatetracontahydro-5H-14,44-(methanodithiomethano)dipyrrolo[1,2-a:1′,2′-d][1,4,7,10,13,16,19,22,25,28,31,34,37,40,43]pentadecaazacyclopentatetracontin-47-yl)acetamide | 97.0 | 18.6
2 | 2-((2S,5aR,11S,14R,17S,20S,23S,26S,32S,35S,38S,41S,44R,47S,49aS)-35-((1H-imidazol-5-yl)methyl)-17,38-bis((1H-indol-3-yl)methyl)-2-amino-11-((R)-1-hydroxyethyl)-23,32-diisobutyl-20-isopropyl-26,41-dimethyl-5,10,13,16,19,22,25,28,31,34,37,40,43,46,49-pentadecaoxooctatetracontahydro-5H-14,44-(methanodithiomethano)dipyrrolo[1,2-a:1′,2′-d][1,4,7,10,13,16,19,22,25,28,31,34,37,40,43]pentadecaazacyclopentatetracontin-47-yl)acetic acid | 95.0 | 25.5
3 | 2-((2S,5aR,11S,14R,17S,20S,23S,26S,32S,35S,38S,41S,44R,47S,49aS)-35-((1H-imidazol-5-yl)methyl)-17,38-bis((1H-indol-3-yl)methyl)-2-amino-11-((R)-1-hydroxyethyl)-23,32-diisobutyl-20-isopropyl-41-methyl-26-(3-(methylamino)-3-oxopropyl)-5,10,13,16,19,22,25,28,31,34,37,40,43,46,49-pentadecaoxooctatetracontahydro-5H-14,44-(methanodithiomethano)dipyrrolo[1,2-a:1′,2′-d] [1,4,7,10,13,16,19,22,25,28,31,34,37,40,43]pentadecaazacyclopentatetracontin-47-yl)acetic acid | 95.4 | 16.8
4 | 2-((2S,5aR,11S,14R,17S,20S,23S,26S,32S,35S,38S,41S,44R,47S,49aS)-35-((1H-imidazol-5-yl)methyl)-17,38-bis((1H-indol-3-yl)methyl)-2-amino-26-(3-(dimethylamino)-3-oxopropyl)-11-((R)-1-hydroxyethyl)-23,32-diisobutyl-20-isopropyl-41-methyl-5,10,13,16,19,22,25,28,31,34,37,40,43,46,49-pentadecaoxooctatetracontahydro-5H-14,44-(methanodithiomethano)dipyrrolo[1,2-a:1′,2′-d][1,4,7,10,13,16,19,22,25,28,31,34,37,40,43]pentadecaazacyclopentatetracontin-47-yl)acetic acid | 96.2 | 13.2
5 | 2-((2S,5aR,11S,14R,17S,20S,23S,26S,32S,35S,38S,41S,44R,47S,49aS)-35-((1H-imidazol-5-yl)methyl)-17,38-bis((1H-indol-3-yl)methyl)-2-amino-26-(3-amino-3-oxopropyl)-11-((R)-1-hydroxyethyl)-23,32-diisobutyl-20-isopropyl-41-methyl-5,10,13,16,19,22,25,28,31,34,37,40,43,46,49-pentadecaoxooctatetracontahydro-5H-14,44-(methanodithiomethano)dipyrrolo[1,2-a:1′,2′-d][1,4,7,10,13,16,19,22,25,28,31,34,37,40,43]pentadecaazacyclopentatetracontin-47-yl)acetic acid | 96.2 | 25.7
